# No end group written: not given here.
# Assay: Quantification of peptides in the hydrolyzed chicken plasma sample and DoT factors
# Conditions: hydrolyzed chicken plasma sample
# Excerpt: To identify the peptides which play a key role on taste-active and taste-modulating effects, not only the 21 newly identified peptides, but also literature-known basic tastants (e.g., amino acids, γ-glutamyl peptides, cations, anions, etc.) were quantified in the hydrolyzed chicken plasma sample. Focusing on the 21 newly identified peptides, the taste quality, taste thresholds, dose over threshold (DOT) factors and concentrations of the peptides in the hydrolyzed chicken plasma sample are shown in Table 6. The taste thresholds determined for the newly identified peptides (those are listed in Table 6) were used for the calculation of DoT factors which are defined as the ratio of the concentration of a substance and its corresponding taste threshold concentration. The DoT factors enable a first estimation of the taste contribution as substances with DoT factors≥1 most likely contribute directly to the perceived taste.
row,Substance,Peptide concentration in the sample [µmol/kg]
1,Pro-Ile-Asn-Asp-Asn (PINDN; Poultry) [SEQ ID NO: 14],102.6
2,EDAPVLH [SEQ ID NO: 7],13.2
3,EGDSAAI [SEQ ID NO: 19],47.5
4,Pro-Thr-Asp-Leu (PTDL; Poultry) [SEQ ID NO: 15],995.6
5,Pro-Glu-Arg-Asn-Glu (PERNE; Poultry) [SEQ ID NO: 4],18.6
6,Pro-Gln-Pro-Glu-Arg (PQPER; Poultry) [SEQ ID NO: 5],0.2
7,Pro-Val-Ala-Glu (PVAE; Poultry) [SEQ ID NO: 16],171.7
8,EEVEEEEVE [SEQ ID NO: 10],3.2
9,Arg-Asn-Gly-Pro-Arg (RNGPR; Poultry) [SEQ ID NO: 17],0.6
10,Pro-Leu-Pro-Arg (PLPR; Poultry) [SEQ ID NO: 2],1.6
11,Pro-Val-Leu-Lys (PVLK; Poultry) [SEQ ID NO: 1],2.1
12,Glu-Asp-Met-Ala-Pro (EDMAP; Poultry) [SEQ ID NO: 13],27.5
13,RAEDTATYY [SEQ ID NO: 18],6.7
14,EETPSHD [SEQ ID NO: 9],5.3
15,EFDARPT [SEQ ID NO: 8],3.6
16,EFDEKPAD [SEQ ID NO: 6],194.1
17,EFDEKAPD [SEQ ID NO: 11],221.1
18,Glu-Ala-Glu-Phe-Asp (EAEFD; Poultry) [SEQ ID NO: 3],123.8
19,ENAPDQK [SEQ ID NO: 12],20.8

# Source: US20260055137A1, “NOVEL ISOLATED PEPTIDES, PROTEIN HYDROLYSATE COMPRISING THE SAID ISOLATED PEPTIDES AND USE THEREOF” (BETAGRO PUBLIC COMPANY LIMITED, priority 2022, published 2026)
